# Measured values as given in PubChem BioAssay AID1347075 (National Center for Advancing Translational Sciences (NCATS), 2019).
# Values joined by “and” are separate entries in the source; they are usually repeats but may differ in a detail not shown here. Equal values may be shown once. About 5,500 (1.4%) of roughly 400,000 compounds were called active. This list was built around the results that the source calls inconclusive (neither active nor inactive); the mix of calls is not that of the screen. Calls come from the whole dose curve; as a rule, active = well fitted cell-killing curve with a large enough effect; inconclusive = small, poorly fitted or top-dose-only effect, or effect the other way; inactive = flat fitted curve, though single readings scatter. Potencies beside an inconclusive call are fits to weak or partial responses and may not hold up.
# Assay: qHTS assay for MDR1-selective chemotherapeutics: Primary screen using the parental adenocarcinoma cell KB-3-1; note: nearly all actives have a fitted effect of over 60% in size
# Conditions: KB-3-1 viability, CellTiter-Glo ATP luminescence, 72 h; activity change, negative = cytotoxic: at 46.1 µM (top of the series)
# Summary of the method: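 Parental KB-3-1 adenocarcinoma cells in phenol-red-free DMEM with 10% FBS were pin-treated with compounds at several concentrations, incubated 72 h at 37 °C, and viability read by CellTiter-Glo luminescence; concentration-effect curves were fitted after normalization.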
# % is set by controls: 0 for no effect and ±100 for the full control effect; potency is the fitted concentration of half-maximal effect.
SMILES,"activity change, negative = cytotoxic",Potency
COC(=O)CNC(c1ccccc1)c1cc(Br)ccc1NC(=O)OCc1ccccc1 (configuration not stated),inactive: -1.64%,
CCN(CC)CCCNc1ccc2ncn3c4ccc(O)cc4c(=O)c1c23,,active: 23.1 µM
COc1ccc2oc(C)c(C(=O)c3ccc([N+](=O)[O-])cc3)c2c1,,"inconclusive: 20.6 µM [cytotoxic, partial curve, poor fit]"
COc1ccc(CC(=O)Oc2ccc(Cl)cc2Br)cc1S(=O)(=O)N1CCOCC1,inactive: 7.63%,
CCOC(=O)C1(Cc2ccc(Cl)cc2)CCN(C(C)Cc2ccc(O)c(OC)c2)CC1 (configuration not stated),,"inconclusive: 16.4 µM [cytotoxic, single point]"
COc1ccc(NC(=O)CN(C)C(=O)/C=C/c2ccc(S(=O)(=O)N3CCCCCC3)cc2)cc1,,"inconclusive: 18.4 µM [cytotoxic, partial curve, poor fit]"
CCOc1ccccc1NC(=O)Cn1c(=O)n(CCCC(=O)NCCOC)c(=O)c2cc(OC)c(OC)cc21,inactive: -2.6%,
C/C(=N\NC(=O)COc1cccc(C)c1)c1ccc2ccccc2c1O,,"inconclusive: 29.1 µM [cytotoxic, single point]"
COc1ccc(CNCCC(c2ccc(F)cc2)c2ccc(OC(C)C)cc2)cc1OC (configuration not stated),,"inconclusive: 29.1 µM [cytotoxic, single point]"
O=C(Cn1cnc2sc(-c3ccccc3)cc2c1=O)NCc1ccccc1,,active: 7.31 µM
C/C=C\C=C/C(=O)Nc1cccc(C2=NOC3(C2)C[C@@H](C(N)=O)N(C(=O)CCCCC)C3)c1 (some centres not stated),inconclusive: -11.7%,
CSc1nccc(Nc2ccccc2)c1C#N,inactive: 14.6%,
N=c1c(C(=O)NC2CCCC2)cc2c(=O)n3ccccc3nc2n1CC1CCCO1 (configuration not stated),,"inconclusive: 23.1 µM [cytotoxic, partial curve, poor fit]"
COc1ccc(CNc2ccc3cc(S(=O)(=O)N4CCCCC4)ccc3n2)cc1,,"inconclusive: 18.4 µM [cytotoxic, partial curve, poor fit]"
Cc1ccc(C)c(NC(=O)CN2C(=O)CSc3nc(C)cc(C)c32)c1,,"inconclusive: 0.0731 µM [rising, full curve]"
COc1ccc(S(=O)(=O)N2CCN(C(=O)c3cccs3)CC2)cc1OC,,"inconclusive: 32.6 µM [cytotoxic, partial curve, poor fit]"
CCCCC[C@H](C)N1C[C@H](COCc2ccccc2)Oc2cc(N3CCC[C@@H]3CO)ccc2S1(=O)=O,,"inconclusive: 29.1 µM [cytotoxic, single point]"
CCC(=O)N1CCCc2cc(S(=O)(=O)N3CCC(C(=O)Nc4ccc(F)c(F)c4)CC3)ccc21,inactive: 0%,
O=C(Nc1nnc(Cc2ccc(Cl)cc2)s1)C1CCN(C(=O)c2ccco2)CC1,,"inconclusive: 18.4 µM [cytotoxic, single point]"
CCn1c(N)[n+](CC(=O)Nc2ccc(SC(F)F)cc2)c2ccccc21,,"inconclusive: 29.1 µM [cytotoxic, single point]"
Cc1cc(C)c2c(=O)c3c(oc2c1)C(=O)N(Cc1ccc(F)cc1)C3c1cccc(O)c1 (configuration not stated),,"inconclusive: 29.1 µM [cytotoxic, single point]"
CC(=O)Oc1c(Cl)cc(Cl)cc1/C=C/c1ccc2ccccc2n1,,"inconclusive: 23.1 µM [cytotoxic, single point]"
CCCCCCCCN(CCCCCCCC)c1ccc(/C=C/c2ccnc3ccccc23)cc1,,"inconclusive: 18.4 µM [rising, single point]"

SMILES,"activity change, negative = cytotoxic",Potency
COc1cccc(C(=O)/C=C/c2ccc(N3CCCCC3)c([N+](=O)[O-])c2)c1,,"inconclusive: 20.6 µM [cytotoxic, single point]"
CCOC(=O)C1=C[C@@H](C(C)C)N(S(=O)(=O)c2ccc([N+](=O)[O-])cc2)[C@H]1c1ccccc1,,active: 11.6 µM
CCc1[nH]nc(C(=O)N2CCCC(C(=O)c3cccc(OC(C)C)c3)C2)c1C (configuration not stated),,"inconclusive: 9.2 µM [cytotoxic, partial curve, poor fit]"
C#CC[N+]1(CC#Cc2ccccc2)CCCC1,,"inconclusive: 29.1 µM [cytotoxic, single point]"
COc1cc(C(O)c2nc(-c3csc4ccccc34)cs2)ccc1F (configuration not stated),inactive: -20.8%,
CC1CCCC(C)N1CCCNC(=O)Cn1c(=O)c2cccn2c2cccnc21 (configuration not stated),inactive: -0.476%,
CCN1CC2=C(OC(N)=C(C#N)C2c2ccccc2)/C(=C\c2ccccc2)C1 (configuration not stated),,"inconclusive: 29.1 µM [cytotoxic, single point]"
Cc1ccc2[nH]c3c(c2c1)CCC3=O,inactive: -26.6%,
O=C(NCc1ccco1)Nc1ccc(Br)cc1,inactive: -0.56%,
COc1cc(CN(C)CC2CCCN(CCc3ccccc3F)C2)cc(Cl)c1OC (configuration not stated),,"inconclusive: 16.4 µM [cytotoxic, single point]"
O=C(CN(c1ccc(F)cc1)S(=O)(=O)c1ccc2c(c1)OCCO2)Nc1ccccc1,inactive: -5.91%,
COC(=O)C1=C(Nc2ccc(C)cc2)C=C(C)C(C(=O)OC)C1c1ccc(F)cc1 (configuration not stated),,active: 11.2 µM
CSc1ccc(CN2CCC(n3nccc3NC(=O)c3ccccc3C)CC2)cc1,,"inconclusive: 20.6 µM [cytotoxic, single point]"
COc1ccc(-c2cccc3c2NC(=O)C3=O)cc1OC,,"inconclusive: 18.4 µM [cytotoxic, single point]"
CC(C(=O)NCc1ccc(F)cc1)n1ccc2cc(S(=O)(=O)N3CCCC3)ccc21 (configuration not stated),,"inconclusive: 23.1 µM [cytotoxic, partial curve, poor fit]"
CCCc1cc(=O)[nH]c(SCC(=O)NN(c2ccccc2)c2ccccc2)n1,,"inconclusive: 2.59 µM [cytotoxic, full curve]"
CN(Cc1ccc(F)cc1)Cc1nc(-c2ccccc2)no1,,"inconclusive: 29.1 µM [rising, single point]"
CC[C@H](C)[C@@H](CN[C@H](C)CNC)NCCC(c1ccccc1)c1ccccc1,,"inconclusive: 29.1 µM [cytotoxic, single point]"
Cc1cc(C)c(-c2noc(C(=O)OC(C)(C)C)c2C(=O)OC(C)(C)C)c(C)c1,,"inconclusive: 29.1 µM [cytotoxic, single point]"
Cc1ccc(N2CCN(C(=O)c3c4c(nc5ccccc35)C(=O)N(C3CCCCC3)C4)CC2)c(C)c1,inactive: -9.47%,
CCOC(=O)N1CCN(S(=O)(=O)c2ccc(OCC)c3ccccc23)CC1,,"inconclusive: 29.1 µM [cytotoxic, single point]"
CCN(C(=O)Cn1cc(S(=O)(=O)Cc2ccccc2Cl)c2ccccc21)c1ccccc1,inactive: -28.2%,

# A second format for some results above.
SMILES	activity change, negative = cytotoxic	Potency
Cc1ccc(N2CCN(C(=O)c3c4c(nc5ccccc35)C(=O)N(C3CCCCC3)C4)CC2)c(C)c1	inactive: -9.47%	
CCOC(=O)N1CCN(S(=O)(=O)c2ccc(OCC)c3ccccc23)CC1		inconclusive: 29.1 µM [cytotoxic, single point]

# Further results:

SMILES,"activity change, negative = cytotoxic",Potency
Cc1ccc(C)c(N2CCN(C(=O)Cn3c(-c4cccs4)cc4ccccc43)CC2)c1,inactive: -3.66%,
COc1ccc(-c2cnnc(N/N=C/c3ccc(-c4ccc([N+](=O)[O-])cc4)o3)n2)cc1,,active: 4.61 µM
Cc1ccc(C(=O)NCCC2=CCCCC2)cc1S(=O)(=O)N1CCCCC1,,"inconclusive: 29.1 µM [cytotoxic, single point]"
Cc1n[nH]c(C)c1S(=O)(=O)N1CCCC(C(=O)Nc2ccc(Cl)cc2)C1 (configuration not stated),,"inconclusive: 29.1 µM [cytotoxic, single point]"
COc1cc(/C=C/C(=O)N2CCC=CC2=O)cc(OC)c1OC,,"inconclusive: 29.1 µM [cytotoxic, single point]"
COc1ccc(-c2cc(=O)n(-c3nc4ccccc4[nH]3)[nH]2)cc1,,active: 20.6 µM
N#CCc1c(C#N)c(N)nc(N2CCN(c3ccc(F)cc3)CC2)c1C#N,,"inconclusive: 32.6 µM [cytotoxic, single point]"
O=C1C=C(NC2CCCC2)CC(c2ccccc2)C1 (configuration not stated),,"inconclusive: 32.6 µM [cytotoxic, single point]"
O=C1CC(c2ccccc2)CC(O)=C1C=NCc1ccccc1Cl (configuration not stated),,"inconclusive: 25.9 µM [cytotoxic, partial curve, poor fit]"
CNC(=O)c1sc(Nc2ccc(OCc3ccccc3)cc2)nc1C,,"inconclusive: 20.6 µM [cytotoxic, partial curve]"
Cc1ccc(S(=O)(=O)Nc2nc(-c3ccccc3)cs2)cc1,inactive: -2.12%,
COc1ccc(Cn2c(=O)c3cccnc3n(Cc3ccc([N+](=O)[O-])cc3)c2=O)cc1,,"inconclusive: 0.58 µM [rising, full curve]"
O=C(O)c1ccc(NC(=O)C2C3CCC(O3)C2C(=O)O)cc1 (configuration not stated),,"inconclusive: 29.1 µM [cytotoxic, single point]"
Cc1ccc2nc(NC3=NC4(CCCC4)C4=C(CCCC4=O)N3)oc2c1,,"inconclusive: 14.6 µM [rising, single point]"
CCOc1cc(C2c3c(oc4ccc(F)cc4c3=O)C(=O)N2Cc2ccco2)ccc1O (configuration not stated),inactive: 9.24%,
COc1cc(OC)cc(C(=O)Nc2ccccc2C(=O)NCc2cccnc2)c1,inactive: 11.7%,
Cc1cc(Br)ccc1NC(=O)c1cn(C2CCCC2)c(=O)c2c1c1ccccc1n2C,inconclusive: 7.27%,
Cc1nc(C(F)(F)F)ccc1C(=O)N1CCC1(C)C(=O)NS(=O)(=O)c1cccc(C#N)c1 (configuration not stated),inactive: 0%,
O=C(Nc1ccccc1Br)C1CC(=O)N(c2ccc3c(c2)OCCO3)C1 (configuration not stated),,"inconclusive: 29.1 µM [rising, single point]"
CCc1ccccc1OCC(=O)Nc1cc(S(=O)(=O)N(CC)CC)ccc1N1CCOCC1,inactive: -8.61%,
CCCC(C)C(=O)Nc1nc(C)c(-c2csc(Nc3cc(Cl)ccc3C)n2)s1 (configuration not stated),,"inconclusive: 10.3 µM [cytotoxic, partial curve, poor fit]"
